Measurements taken from US12371400B2, “Cathepsin inhibitors” (ACADEMISCH ZIEKENHUIS LEIDEN (H.O.D.N. LUMC), priority 2017, dated 2025).

Tests used:
[1] = Indiscriminate thiol reactivity assay with cysteine (LC-MS adduct quantification); details: for Adduct: 100 μM inhibitor, 10 mM cysteine, 10 mM phosphate pH 7.4, 37° C., 16 h; for adduct formation with cysteine (in words): cysteine assay, Table 1
[2] = Indiscriminate thiol reactivity assay with GSH (LC-MS adduct quantification); details: 100 μM inhibitor, 5 mM GSH in PBS, 37° C., 16 h

Row | SMILES | Adduct [1] | adduct formation with cysteine (in words) [1] | adduct formed with GSH [2]
1 | CC(C)(F)C[C@H](N[C@@H](c1ccc(-c2ccc(S(C)(=O)=O)cc2)cc1)C(F)(F)F)C(=O)NC1(C#N)CC1 [ODN, (S)—N-(1-cyanocyclopropyl)-4-fluoro-4-methyl-2-(((S)-2,2,2-trifluoro-1-(4′-(methylsulfonyl)-[1,1′-biphenyl]-4-yl)ethyl)amino)pentanamide, reference compound] | 25% | significant adduct formation | –
2 | C#CCNC(=O)[C@H](CC(C)(C)F)N[C@@H](c1ccc(-c2ccc(S(C)(=O)=O)cc2)cc1)C(F)(F)F [Compound 4, (S)-4-fluoro-4-methyl-N-(prop-2-yn-1-yl)-2-(((S)-2,2,2-trifluoro-1-(4′-(methylsulfonyl)-[1,1′-biphenyl]-4-yl)ethyl)amino)pentanamide] | 0% | not detected | 0%
3 | CC(C)(F)C[C@H](N[C@@H](c1ccc(-c2ccc(S(C)(=O)=O)cc2)cc1)C(F)(F)F)C(=O)NCC#N [Compound 2, (S)—N-(cyanomethyl)-4-fluoro-4-methyl-2-(((S)-2,2,2-trifluoro-1-(4′-(methylsulfonyl)-[1,1′-biphenyl]-4-yl)ethyl)amino)pentanamide, reference compound] | 79% | significant adduct formation | –
4 | CC(C)(F)C[C@H](N[C@@H](c1ccc(-c2ccc(S(C)(=O)=O)cc2)cc1)C(F)(F)F)C(=O)NCC#CBr [Compound 6, (S)—N-(3-bromoprop-2-yn-1-yl)-4-fluoro-4-methyl-2-(((S)-2,2,2-trifluoro-1-(4′-(methylsulfonyl)-[1,1′-biphenyl]-4-yl)ethyl)amino)pentanamide] | 50% | – | 54%
5 | C#CC(C)NC(=O)[C@H](CC(C)(C)F)N[C@@H](c1ccc(-c2ccc(S(C)(=O)=O)cc2)cc1)C(F)(F)F (mixture of isomers) [Compound 5, (S)—N—((R/S)-but-3-yn-2-yl)-4-fluoro-4-methyl-2-(((S)-2,2,2-trifluoro-1-(4′-(methylsulfonyl)-[1,1′-biphenyl]-4-yl)ethyl)amino)pentanamide] | 0% | not detected | 0%
6 | CC(C)C[C@H](NC(=O)[C@H]1O[C@@H]1C(=O)O)C(=O)NCCCCN=C(N)N [Compound E-64, reference compound] | 32% | significant adduct formation | –
7 | C#CC1(NC(=O)[C@H](CC(C)(C)F)N[C@@H](c2ccc(-c3ccc(S(C)(=O)=O)cc3)cc2)C(F)(F)F)CC1 [Compound 3, (S)—N-(1-ethynylcyclopropyl)-4-fluoro-4-methyl-2-(((S)-2,2,2-trifluoro-1-(4′-(methylsulfonyl)-[1,1′-biphenyl]-4-yl)ethyl)amino)pentanamide] | 0% | not detected | –

Some compounds share one wording; it may come from a single statement.
